These are yes or no findings as the source states them, for the method shown. Binding seen in cells or lysates may run through a third protein. Some results given as binding are weak or reduced against the parent protein; the word gives no strength.
Target: voltage-dependent anion channel 1 (VDAC1) (human (endogenous in MCF-10A, MDA-MB-231, Hs578t)) (UniProt P21796)
Assay: co-IP; HKII and GSK3β co-immunoprecipitated with VDAC1; MCF-10A, MDA-MB-231 and Hs578t cells transfected for 48 h with pmOGT-HaloTaq or pHaloTaq (control)

Protein sequences, listed by entry. Tags and fused reporters are not part of them.
UniProt P21796: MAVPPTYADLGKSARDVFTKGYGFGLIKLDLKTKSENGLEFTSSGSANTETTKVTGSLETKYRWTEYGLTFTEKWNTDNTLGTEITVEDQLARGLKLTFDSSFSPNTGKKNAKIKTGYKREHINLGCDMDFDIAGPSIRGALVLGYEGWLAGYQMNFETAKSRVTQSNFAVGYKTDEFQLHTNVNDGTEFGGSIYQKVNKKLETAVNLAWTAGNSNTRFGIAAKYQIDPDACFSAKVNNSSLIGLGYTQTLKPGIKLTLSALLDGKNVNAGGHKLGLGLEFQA
UniProt P49841: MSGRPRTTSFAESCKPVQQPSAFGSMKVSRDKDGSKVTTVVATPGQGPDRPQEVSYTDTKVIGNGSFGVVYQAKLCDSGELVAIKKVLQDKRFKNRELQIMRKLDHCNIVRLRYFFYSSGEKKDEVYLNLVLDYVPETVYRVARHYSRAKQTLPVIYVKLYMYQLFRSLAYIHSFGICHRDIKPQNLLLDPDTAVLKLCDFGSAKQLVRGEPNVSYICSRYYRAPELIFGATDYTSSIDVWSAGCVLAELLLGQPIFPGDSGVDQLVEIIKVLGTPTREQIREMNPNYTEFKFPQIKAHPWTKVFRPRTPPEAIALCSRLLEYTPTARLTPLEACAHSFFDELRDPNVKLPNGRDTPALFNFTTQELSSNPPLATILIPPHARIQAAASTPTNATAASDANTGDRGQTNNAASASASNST

binding: binds
Substance: glycogen synthase kinase (GSK3β) (from UniProt P49841 1-420) (enzyme)

Reference: publication PMC10930986
